This is a selection; strong and weak results do not stand in their true shares. For part of these data: At the low end of the ranking the order means little.
Tests used:
Assay in all cases: DAPPL (digital affinity profiling via proximity ligation, sequencing)
Conditions in all cases: 10 mM Tris-HCl pH 7.5, 50 mM NaCl, 1 mM DTT, 4% glycerol, room temperature, 30 min; GST-TFs on glutathione beads, 16-mer random dsDNA library, 0.1% …; high values mean tight binding; double strand, one strand shown; scale: fold enrichment (6-mer frequency, TF over GST control)
ELK1 = biological target: T1, ELK1 (UniProt P19419)
T1 sequence: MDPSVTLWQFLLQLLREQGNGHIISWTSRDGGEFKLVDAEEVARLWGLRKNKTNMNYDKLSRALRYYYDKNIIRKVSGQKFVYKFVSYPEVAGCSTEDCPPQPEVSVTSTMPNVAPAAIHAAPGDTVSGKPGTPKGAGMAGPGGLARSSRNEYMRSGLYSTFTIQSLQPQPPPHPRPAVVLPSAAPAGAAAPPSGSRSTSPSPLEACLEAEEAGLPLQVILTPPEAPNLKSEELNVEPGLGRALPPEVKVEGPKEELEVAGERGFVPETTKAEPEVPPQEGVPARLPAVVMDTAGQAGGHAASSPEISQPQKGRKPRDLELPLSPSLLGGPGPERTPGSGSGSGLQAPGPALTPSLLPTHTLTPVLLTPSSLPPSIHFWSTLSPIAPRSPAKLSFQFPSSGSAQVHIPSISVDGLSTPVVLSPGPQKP

ELK3 = biological target: T2, ELK3 (UniProt P41970)
T2 sequence: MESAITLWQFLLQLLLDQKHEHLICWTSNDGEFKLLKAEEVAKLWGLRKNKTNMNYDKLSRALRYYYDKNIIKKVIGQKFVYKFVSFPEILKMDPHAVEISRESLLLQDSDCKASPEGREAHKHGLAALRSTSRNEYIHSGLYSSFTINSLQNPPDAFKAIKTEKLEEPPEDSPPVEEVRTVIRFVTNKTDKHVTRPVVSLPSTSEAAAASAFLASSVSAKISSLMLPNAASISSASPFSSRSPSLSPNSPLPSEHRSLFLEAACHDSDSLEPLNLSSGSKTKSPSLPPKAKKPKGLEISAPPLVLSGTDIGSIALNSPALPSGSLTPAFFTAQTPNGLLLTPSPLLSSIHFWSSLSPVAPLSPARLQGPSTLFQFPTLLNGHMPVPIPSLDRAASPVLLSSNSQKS

SPIC = biological target: T3, SPIC (UniProt Q8N5J4)
T3 sequence: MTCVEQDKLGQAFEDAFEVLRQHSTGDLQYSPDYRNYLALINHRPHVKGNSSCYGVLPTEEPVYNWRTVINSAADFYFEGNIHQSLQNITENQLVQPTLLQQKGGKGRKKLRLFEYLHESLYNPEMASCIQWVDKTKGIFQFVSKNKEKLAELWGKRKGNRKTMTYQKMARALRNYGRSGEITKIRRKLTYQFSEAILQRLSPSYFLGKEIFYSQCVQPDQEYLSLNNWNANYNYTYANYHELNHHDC

ETS2 = biological target: T4, ETS2 (UniProt P15036)
T4 sequence: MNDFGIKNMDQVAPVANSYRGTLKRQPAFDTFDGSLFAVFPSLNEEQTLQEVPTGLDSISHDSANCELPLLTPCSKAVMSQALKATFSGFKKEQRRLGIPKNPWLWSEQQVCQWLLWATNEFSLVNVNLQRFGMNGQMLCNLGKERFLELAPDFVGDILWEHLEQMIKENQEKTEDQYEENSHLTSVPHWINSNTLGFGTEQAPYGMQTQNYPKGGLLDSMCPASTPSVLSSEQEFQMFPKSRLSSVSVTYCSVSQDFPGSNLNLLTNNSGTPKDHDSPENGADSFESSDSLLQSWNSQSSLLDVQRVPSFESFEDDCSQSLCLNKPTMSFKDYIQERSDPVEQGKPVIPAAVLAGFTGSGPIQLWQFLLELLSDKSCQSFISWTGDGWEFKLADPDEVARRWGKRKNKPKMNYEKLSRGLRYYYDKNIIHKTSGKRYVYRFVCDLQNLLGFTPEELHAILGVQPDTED

ETV3 = biological target: T5, ETV3 (UniProt P41162-2)
T5 sequence: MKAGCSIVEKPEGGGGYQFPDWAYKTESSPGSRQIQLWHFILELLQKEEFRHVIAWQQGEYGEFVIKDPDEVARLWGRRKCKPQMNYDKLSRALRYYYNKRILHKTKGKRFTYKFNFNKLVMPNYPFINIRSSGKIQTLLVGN

Sequence: GTTTAA
- binding signal (ELK1): 1.19

Sequence: TAAGGT
- binding signal (ELK3): 1.13
- binding signal (SPIC): 1.11

Sequence: AACAAA
- binding signal (ELK3): 1.27
- binding signal (SPIC): 1.14

Sequence: ATGACT
- binding signal (ELK1): 1.42

Sequence: GGAACA
- binding signal (ELK1): 1.09

Sequence: ATTCCC
- binding signal (ELK1): 1.32

Sequence: TACTGC
- binding signal (ELK1): 1.22

Sequence: ATAAAC
- binding signal (ELK3): 1.14
- binding signal (SPIC): 1.2

Sequence: TATACT
- binding signal (ELK3): 1.43
- binding signal (SPIC): 1.43

Sequence: TTCCCC
- binding signal (ELK3): 1.61
- binding signal (SPIC): 1.87

Sequence: GAATCC
- binding signal (ELK3): 1.08
- binding signal (SPIC): 1.1

Sequence: ATGTAC
- binding signal (ELK1): 1.31

Sequence: TACACG
- binding signal (ELK3): 1.19
- binding signal (SPIC): 0.957

Sequence: CTAATC
- binding signal (ELK1): 1.39

Sequence: TCTCTG
- binding signal (ELK3): 1.52
- binding signal (SPIC): 1.59

Sequence: TACACC
- binding signal (ELK1): 1.27

Sequence: CCTGTT
- binding signal (ELK3): 1.94
- binding signal (SPIC): 1.91

Sequence: ATGGAT
- binding signal (ELK1): 1.11

Sequence: CGCGTC
- binding signal (ELK1): 1.24

Sequence: CTCGCC
- binding signal (ELK1): 1.38

Sequence: GTATTT
- binding signal (ELK1): 1.61

Sequence: AATTCA
- binding signal (ELK3): 1.47
- binding signal (SPIC): 1.32

Sequence: TTAGTA
- binding signal (ELK3): 1.08
- binding signal (SPIC): 1.16

Sequence: CCCTTT
- binding signal (ELK1): 1.36

Sequence: TACCGC
- binding signal (ELK1): 1.07

Sequence: ATTTCA
- binding signal (ELK1): 1.17
- binding signal (ETS2): 1.22
- binding signal (ETV3): 1.23

Source: publication PMC7862700
